Laboratory results from patent US7307143 (MAX DELBR CK INSTITUT FUR MOLEKULARE HEDIZIN, dated 2007).
Results are given in words; binding and its absence hold for the method and conditions named. Some binding calls cover weakened binding; strength is not graded here.

By UniProt entry, the sequences of proteins in these tests, tags left out. Where a name states a change or a piece, a line headed by the entry shows the natural chain unless it says otherwise. Residues count along the entry.
UniProt P25054: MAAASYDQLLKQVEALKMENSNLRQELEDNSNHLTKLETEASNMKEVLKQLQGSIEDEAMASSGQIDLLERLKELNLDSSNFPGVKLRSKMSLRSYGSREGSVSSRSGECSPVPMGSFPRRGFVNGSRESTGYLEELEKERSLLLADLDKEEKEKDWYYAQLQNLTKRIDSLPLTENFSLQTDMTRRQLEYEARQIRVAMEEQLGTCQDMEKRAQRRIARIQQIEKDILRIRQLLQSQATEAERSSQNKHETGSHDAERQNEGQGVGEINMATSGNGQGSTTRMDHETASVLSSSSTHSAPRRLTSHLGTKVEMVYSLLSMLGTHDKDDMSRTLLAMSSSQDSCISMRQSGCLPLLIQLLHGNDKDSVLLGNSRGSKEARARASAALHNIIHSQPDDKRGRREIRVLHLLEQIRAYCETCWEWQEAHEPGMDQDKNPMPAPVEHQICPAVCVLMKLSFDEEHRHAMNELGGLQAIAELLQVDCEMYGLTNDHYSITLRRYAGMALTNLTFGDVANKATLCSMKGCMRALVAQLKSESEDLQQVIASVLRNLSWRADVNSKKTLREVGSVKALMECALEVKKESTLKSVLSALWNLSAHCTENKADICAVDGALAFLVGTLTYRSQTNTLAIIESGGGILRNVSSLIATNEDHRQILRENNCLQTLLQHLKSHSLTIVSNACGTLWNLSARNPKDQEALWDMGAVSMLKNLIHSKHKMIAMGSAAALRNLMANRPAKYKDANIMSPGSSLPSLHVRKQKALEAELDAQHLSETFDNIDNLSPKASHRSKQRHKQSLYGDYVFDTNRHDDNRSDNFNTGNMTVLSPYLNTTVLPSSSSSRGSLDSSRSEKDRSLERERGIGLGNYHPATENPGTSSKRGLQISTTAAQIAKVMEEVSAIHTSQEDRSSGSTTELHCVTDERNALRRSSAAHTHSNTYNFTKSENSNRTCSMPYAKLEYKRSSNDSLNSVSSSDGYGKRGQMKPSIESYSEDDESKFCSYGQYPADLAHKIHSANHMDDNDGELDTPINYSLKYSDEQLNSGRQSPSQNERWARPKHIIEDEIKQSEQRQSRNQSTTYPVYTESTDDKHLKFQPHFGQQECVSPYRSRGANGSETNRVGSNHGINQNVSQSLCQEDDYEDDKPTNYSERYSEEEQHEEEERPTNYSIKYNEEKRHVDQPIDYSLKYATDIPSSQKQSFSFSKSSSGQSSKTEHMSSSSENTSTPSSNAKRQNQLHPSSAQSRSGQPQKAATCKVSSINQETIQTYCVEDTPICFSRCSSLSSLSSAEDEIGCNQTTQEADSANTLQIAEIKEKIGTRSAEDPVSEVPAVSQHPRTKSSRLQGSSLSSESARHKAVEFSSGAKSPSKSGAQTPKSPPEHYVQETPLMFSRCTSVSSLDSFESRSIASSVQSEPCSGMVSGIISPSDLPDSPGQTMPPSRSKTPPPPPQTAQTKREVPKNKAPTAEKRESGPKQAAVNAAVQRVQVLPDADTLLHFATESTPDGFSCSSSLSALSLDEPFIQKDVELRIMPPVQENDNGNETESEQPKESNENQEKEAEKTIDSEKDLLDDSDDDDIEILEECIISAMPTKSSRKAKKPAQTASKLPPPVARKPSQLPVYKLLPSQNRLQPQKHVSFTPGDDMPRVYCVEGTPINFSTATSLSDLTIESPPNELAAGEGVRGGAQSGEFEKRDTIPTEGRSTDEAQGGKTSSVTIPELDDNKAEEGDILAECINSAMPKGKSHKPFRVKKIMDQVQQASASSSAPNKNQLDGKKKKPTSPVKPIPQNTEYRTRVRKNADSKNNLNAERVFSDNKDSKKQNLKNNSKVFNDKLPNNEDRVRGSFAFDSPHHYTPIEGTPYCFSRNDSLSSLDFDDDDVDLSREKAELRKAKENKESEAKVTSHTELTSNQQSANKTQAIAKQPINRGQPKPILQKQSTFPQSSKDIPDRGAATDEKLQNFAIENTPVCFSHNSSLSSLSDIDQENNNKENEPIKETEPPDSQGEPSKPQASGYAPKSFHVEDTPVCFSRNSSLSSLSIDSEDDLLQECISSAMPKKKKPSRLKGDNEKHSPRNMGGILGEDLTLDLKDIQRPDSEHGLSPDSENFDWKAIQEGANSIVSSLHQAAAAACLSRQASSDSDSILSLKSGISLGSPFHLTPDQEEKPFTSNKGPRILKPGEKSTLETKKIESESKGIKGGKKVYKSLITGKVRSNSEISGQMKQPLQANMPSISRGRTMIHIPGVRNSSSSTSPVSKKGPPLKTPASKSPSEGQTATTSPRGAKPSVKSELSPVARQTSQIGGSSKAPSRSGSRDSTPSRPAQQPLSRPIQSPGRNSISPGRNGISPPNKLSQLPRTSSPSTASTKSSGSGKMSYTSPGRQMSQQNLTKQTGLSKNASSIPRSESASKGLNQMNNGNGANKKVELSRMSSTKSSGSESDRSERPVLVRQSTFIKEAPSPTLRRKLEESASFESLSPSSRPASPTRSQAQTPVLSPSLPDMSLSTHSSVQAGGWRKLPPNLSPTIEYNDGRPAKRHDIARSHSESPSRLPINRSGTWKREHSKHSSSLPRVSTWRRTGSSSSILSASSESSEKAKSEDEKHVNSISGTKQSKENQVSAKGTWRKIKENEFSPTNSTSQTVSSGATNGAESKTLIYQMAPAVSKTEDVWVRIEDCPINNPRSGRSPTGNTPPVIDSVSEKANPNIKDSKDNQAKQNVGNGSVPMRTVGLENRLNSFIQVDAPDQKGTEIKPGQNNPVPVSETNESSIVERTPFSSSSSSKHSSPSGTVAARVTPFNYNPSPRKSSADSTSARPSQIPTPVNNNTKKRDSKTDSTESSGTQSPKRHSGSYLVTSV
Adenomatosis Polyposis Coli (APC): residues 2-2843 of P25054
APC fragment of amino acids 1464-1604: residues 1464-1604 of P25054
APC fragment of amino acids 1516-1595: residues 1516-1595 of P25054
APC fragment of amino acids 1690-1778: residues 1690-1778 of P25054
APC fragment of amino acids 1995-2083: residues 1995-2083 of P25054
UniProt O70240: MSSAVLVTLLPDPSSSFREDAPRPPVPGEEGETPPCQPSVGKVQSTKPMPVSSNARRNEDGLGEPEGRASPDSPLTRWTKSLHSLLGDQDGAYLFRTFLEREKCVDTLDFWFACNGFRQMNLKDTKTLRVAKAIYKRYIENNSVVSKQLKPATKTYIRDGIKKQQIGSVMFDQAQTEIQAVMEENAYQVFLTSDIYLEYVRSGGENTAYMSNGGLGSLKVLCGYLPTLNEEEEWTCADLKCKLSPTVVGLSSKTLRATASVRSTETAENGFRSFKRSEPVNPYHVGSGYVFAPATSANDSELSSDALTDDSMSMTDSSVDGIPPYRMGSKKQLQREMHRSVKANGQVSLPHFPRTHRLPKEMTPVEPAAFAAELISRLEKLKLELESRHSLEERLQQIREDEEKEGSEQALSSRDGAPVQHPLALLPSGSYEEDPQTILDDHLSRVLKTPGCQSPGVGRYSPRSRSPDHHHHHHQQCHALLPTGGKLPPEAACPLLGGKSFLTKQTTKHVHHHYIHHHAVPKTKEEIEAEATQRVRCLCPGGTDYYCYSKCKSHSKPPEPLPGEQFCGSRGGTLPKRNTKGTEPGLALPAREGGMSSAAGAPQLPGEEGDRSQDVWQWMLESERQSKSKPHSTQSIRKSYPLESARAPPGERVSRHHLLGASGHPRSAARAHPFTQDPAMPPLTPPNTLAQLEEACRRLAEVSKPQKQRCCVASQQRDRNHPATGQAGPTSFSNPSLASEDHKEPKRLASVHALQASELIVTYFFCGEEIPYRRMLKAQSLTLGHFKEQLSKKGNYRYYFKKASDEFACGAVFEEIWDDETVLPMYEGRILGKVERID

Columns and labels:
[1] = target: APC fragment of amino acids 1690-1778 (UniProt P25054); test: yeast 2-hybrid
[2] = target: Adenomatosis Polyposis Coli (APC) (UniProt P25054); test: yeast 2-hybrid
[3] = target: APC fragment of amino acids 1995-2083 (UniProt P25054); test: yeast 2-hybrid
[4] = target: APC fragment of amino acids 1464-1604 (UniProt P25054); test: yeast 2-hybrid, β-galactosidase units
[5] = target: APC fragment of amino acids 1516-1595 (UniProt P25054); test: yeast 2-hybrid, β-galactosidase units

Measured: binding

conductin RGS domain (amino acids 78-200) (from UniProt O70240 78-200)
binds: [1] | [2] | [3] | [4] | [5]
